{"source": "patent US4673575A", "about": "“Composition, pharmaceutical preparation and method for treating viral hepatitus” (Fox Chase Cancer Center, priority 1985, dated 1987)", "origin": "cited, not measured here", "system": "hepatitis B virus", "details": "infected chimpanzees", "note": "At least one structure is not confirmed: it was looked up by name or label, or the drawing left a doubt."}
{"smiles": "O=C(O)P(=O)(O)O", "note": "[phosphonoformate]", "values": [{"measurement": "control of the disease", "result": "ineffective"}]}
